Results are given in words; binding and its absence hold for the method and conditions named. Some results given as binding are weak or reduced against the parent protein; the word gives no strength. For some assays here: Tags and fused reporters may be left off the sequences shown.
Experiments:
[1] = molecular target: T1, Par-3 PDZ1-APM (residues 309-987) (UniProt O96782); assay: supernatant depletion assay
T1 sequence: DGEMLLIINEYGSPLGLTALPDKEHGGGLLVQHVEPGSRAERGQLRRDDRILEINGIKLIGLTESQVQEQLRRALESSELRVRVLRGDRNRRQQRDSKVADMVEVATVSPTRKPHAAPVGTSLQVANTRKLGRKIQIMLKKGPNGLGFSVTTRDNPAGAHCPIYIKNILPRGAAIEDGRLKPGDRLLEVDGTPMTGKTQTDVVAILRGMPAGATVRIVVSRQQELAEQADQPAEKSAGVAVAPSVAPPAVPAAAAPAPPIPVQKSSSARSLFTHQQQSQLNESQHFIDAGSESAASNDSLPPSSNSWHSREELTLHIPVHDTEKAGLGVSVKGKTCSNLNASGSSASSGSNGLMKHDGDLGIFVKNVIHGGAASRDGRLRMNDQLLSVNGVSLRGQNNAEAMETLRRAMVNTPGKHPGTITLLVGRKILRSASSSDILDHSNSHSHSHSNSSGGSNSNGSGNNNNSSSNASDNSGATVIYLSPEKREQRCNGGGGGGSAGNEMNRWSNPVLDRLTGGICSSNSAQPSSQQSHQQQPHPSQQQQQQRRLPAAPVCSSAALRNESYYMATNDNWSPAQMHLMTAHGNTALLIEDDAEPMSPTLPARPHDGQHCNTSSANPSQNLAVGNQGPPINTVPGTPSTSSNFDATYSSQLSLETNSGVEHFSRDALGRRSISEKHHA

his-Par-6 = molecular target: T2, his-Par-6 (UniProt O97111); assay: co-purification
T2 sequence: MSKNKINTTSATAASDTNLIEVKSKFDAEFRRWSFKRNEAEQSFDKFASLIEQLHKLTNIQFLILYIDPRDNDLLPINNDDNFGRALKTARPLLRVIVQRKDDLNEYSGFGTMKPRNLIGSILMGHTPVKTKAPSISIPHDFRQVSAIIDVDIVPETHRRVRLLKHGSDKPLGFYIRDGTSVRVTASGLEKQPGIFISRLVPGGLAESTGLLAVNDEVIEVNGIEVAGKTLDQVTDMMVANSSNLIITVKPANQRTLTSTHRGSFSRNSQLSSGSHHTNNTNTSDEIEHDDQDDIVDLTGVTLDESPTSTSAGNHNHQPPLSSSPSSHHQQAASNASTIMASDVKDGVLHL

B1: Par complex (Par-6 and atypical Protein Kinase C, aPKC) (complex, UniProt A1Z9X0 1-606; O97111 1-351)
chain 1: MQKMPSQILNDGSSVSLNSASMNMANTPNSITVKTAYNGQIIITTINKNISYEELCYEIRNICRFPLDQPFTIKWVDEENDPCTISTKMELDEAIRLYEMNFDSQLVIHVFPNVPQAPGLSCDGEDRSIYRRGARRWRKLYRVNGHIFQAKRFNRRAFCAYCQDRIWGLGRQGFKCIQCKLLVHKKCHKLVQKHCTDQPEPLVKERAEESSDPIPVPLPPLPYEAMSGGAEACETHDHAHIVAPPPPEDPLEPGTQRQYSLNDFELIRVIGRGSYAKVLMVELRRTRRIYAMKVIKKALVTDDEDIDWVQTEKHVFETASNHPFLVGLHSCFQTPSRLFFVIEFVRGGDLMYHMQRQRRLPEEHARFYAAEISLALNFLHEKGIIYRDLKLDNVLLDHEGHIKLTDYGMCKEGIRPGDTTSTFCGTPNYIAPEILRGEDYGFSVDWWALGVLLYEMLAGRSPFDLAGASENPDQNTEDYLFQVILEKTIRIPRSLSVRAASVLKGFLNKNPADRLGCHRESAFMDIVSHPFFKNMDWELLERKQVTPPFKPRLDSDRDLANFPPEFTGEAVQLTPDDDHVIDNIDQSEFEGFEYVNPLLMSLEDCV
chain 2: T2 sequence
binding [1]: binds

B2: atypical Protein Kinase C (aPKC) (enzyme, UniProt A1Z9X0 1-606)
chain: B1 chain 1
binding (his-Par-6): binds

— publication doi:10.1101/2021.12.10.472131 (bioRxiv, 2021)
